The term MIC denotes the smallest concentration in the dilution series that meets the test's criterion for growth inhibition. High values mean a less susceptible organism, low ones a more susceptible organism.

The subject of assay [1] is P. acnes ATCC11827. Conditions: BHI broth, anaerobic, 37°C, 72 h, A600; mean of three independent experiments in duplicates; ND = no detectable activity. Here is the method: (§1) The strains of P. acnes were cultured in brain heart infusion (BHI) broth (HKM, Guangzhou, China) with 1% glucose at 37°C under an anaerobic atmosphere using MGC Anaeropack systems (Mitsubishi, Gas Chemical Co., Inc, Japan), respectively. […] S. epidermidis (09A3726 and 09B2490) and S. aureus (ATCC 2592) were grown in LB (Luria-Bertani) broth as our previous report.
(§2) Briefly, samples were prepared as a stock solution in 0.9% salt water at a series of concentration. 890 µl special broth (BHI broth for P. acnes, LB broth for S. epidermidis and S. aureus), 100 µl bacterial suspension (10^8 CFU/ml) and 10 µl test sample were put together in the test tube under anaerobic conditions at 37°C for 72 h for P. acnes and under aerobic conditions at 37°C for 24 or 48 h for S. epidermidis and S. aureus. An absorbance at 600 nm was measured by a microplate reader to estimate bacterial growth. The MIC was defined as the lowest concentration of test sample completely inhibiting microorganism’s growth.

Assay [2] concerns P. acnes ATCC6919. The settings on record: BHI broth, anaerobic, 37°C, 72 h, A600; mean of three independent experiments in duplicates; ND = no detectable activity. Here is the method:
as §1, §2

Assay [3] concerns S. epidermidis 09A3726. Conditions: LB broth, aerobic, 37°C, 24 or 48 h, A600; mean of three independent experiments in duplicates; ND = no detectable activity. Here is the method: as §1, §2
The test system of assay [4] is S. epidermidis 09B2490. Conditions: LB broth, aerobic, 37°C, 24 or 48 h, A600; mean of three independent experiments in duplicates. Here is the method: as §1, §2
Assay [5] has as its system S. aureus 09B2499. Conditions: LB broth, aerobic, 37°C, 24 or 48 h, A600; mean of three independent experiments in duplicates.

Regarding `CCC[C@@H]1C[C@@H](C(=O)N[C@@H]([C@H]2O[C@H](SC)[C@H](OP(=O)(O)O)[C@@H](O)[C@H]2O)[C@H](C)Cl)N(C)C1` [clindamycin, clindamycin phosphate], the MIC in assay [1] is 2.3 µg/mL; in assay [2], 2.3 µg/mL; in assay [3], “no activity”; in assay [4], 1.2 µg/mL; in assay [5], 1.2 µg/mL.

(Values after article PMC3755965, “A Small Peptide with Therapeutic Potential for Inflammatory Acne Vulgaris” (PLoS ONE, 2013).)
